# Data as given in the supplement of paper PMC12067093, “Discovery and optimisation of a covalent ligand for TRIM25 and its application to targeted protein ubiquitination” (Chemical Science, 2025).
# The other results are listed elsewhere or left out.
# Compound: Cc1cc(ccc1-c1ccccc1)C(=O)N1CCCN(CC1)C(=O)CCl [compound 10]
# Experiment: probe-labelled cysteine peptide fold change vs DMSO (competition) (log2 fold change); higher = less target engagement (more negative = stronger competition)
# Conditions: 10 µM; THP-1; incubation time: 4 h
# 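Further: competitive profiling in live THP-1 cells: cysteine peptides tagged with an iodoacetamide desthiobiotin (IA-DTB) probe, intensity after compound treatment relative to DMSO-treated cells.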
row,Target,probe-labelled cysteine peptide fold change
1,RAP1GAP2_Q684P5_171_DHLNFYCTGSSLGNLILSVK (UniProt Q684P5),-0.0643
2,RANBP9_Q96S59_719_SGIGSCAFATVEDYLH (UniProt Q96S59),-0.139
3,RAPGEF1_Q13905_1024_CFQQAHYDMR (UniProt Q13905),-0.104
4,RANGAP1_P46060_303_ELNLSFCEIKR (UniProt P46060),-0.184
5,RBM39_Q14498_478_CPSIAAAIAAVNALHGR (UniProt Q14498),-0.0988
6,RASAL3_Q86YV0_614_LLCPAILAPSLFGLAPDHPAPGPAR (UniProt Q86YV0),0.184
7,RANBP6_O60518_118_LCDIFAVLAR (UniProt O60518),-0.0407
8,RCHY1_Q96PM5_136_CIENVSR (UniProt Q96PM5),0.0116
9,RBM27_Q9P2N5_279_CRDYDER (UniProt Q9P2N5),0.245
10,RBBP4_Q09028_203_EGYGLSWNPNLSGHLLSASDDHTICLWDISAVPK (UniProt Q09028),0.181
11,RANBP2_P49792_1196_TGEEDEEEFFCNR (UniProt P49792),0.192
12,RAP1GDS1_P52306_560+567_YNSMVLICALMGSECLHK (UniProt P52306),-0.0101
13,RANBP3_Q9H6Z4_406_VEVITGEEAESNVLQMQCK (UniProt Q9H6Z4),0.313
14,RDH10_Q8IZV5_170_TMMVNCHAHFWTTK (UniProt Q8IZV5),-0.0346
15,RBM19_Q9Y4C8_293_EPTTCHTVK (UniProt Q9Y4C8),0.0705
16,RCC1L_Q96I51_401_CGLSHFAALTNK (UniProt Q96I51),-0.101
17,RCC2_Q9P258_280_GNLYSFGCPEYGQLGHNSDGK (UniProt Q9P258),0.188
18,RARS_P54136_115_FGDYQCNSAMGISQMLK (UniProt P54136),-0.0887
19,RAP1A_P62834_141_QWCNCAFLESSAK (UniProt P62834),-0.322
20,RBBP5_Q15291_233_EILTCGR (UniProt Q15291),-0.0732

row,Target,probe-labelled cysteine peptide fold change
1,RBM5_P52756_187_FEDWLCNK (UniProt P52756),-0.13
2,RDH13_Q8NBN7_75_CEAAAK (UniProt Q8NBN7),-0.384
3,RBM25_P49756_132_LQAFGFCEYK (UniProt P49756),0.168
4,RBBP7_Q16576_166_HPAKPDPSGECNPDLR (UniProt Q16576),-0.21
5,RCHY1_Q96PM5_87_IQHAQQTCEECSTLFGEYYCDICHLFDK (UniProt Q96PM5),-0.0605
6,RECQL4_O94761_636_MGVHCFLGLTATATR (UniProt O94761),0.00652
7,RB1_P06400_278_IIEVLCK (UniProt P06400),0.188
8,RC3H1_Q5TC82_33_KPISLGCGHTVCK (UniProt Q5TC82),0.0546
9,RB1CC1_Q8TDY2_282_ESCQSTVHQQDETTIDTK (UniProt Q8TDY2),-0.335
10,RBBP7_Q16576_277_PSHLVDAHTAEVNCLSFNPYSEFILATGSADK (UniProt Q16576),0.0787
11,RCHY1_Q96PM5_65_EVQCINCEK (UniProt Q96PM5),-0.0388
12,RBKS_Q9H477_151_VMVCQLEITPATSLEALTMAR (UniProt Q9H477),0.198
13,RANBP2_P49792_3221_ITITECGQI (UniProt P49792),-0.0955
14,RBM12B_Q8IXT5_837_CPSDEDFR (UniProt Q8IXT5),-0.12
15,RBM34_P42696_310_HFLDCGSIMAVR (UniProt P42696),0.104
16,RAPGEF1_Q13905_817_CATSSQPLAAR (UniProt Q13905),-0.1
17,RASGRP2_Q7LDG7_548_DRLSVECR (UniProt Q7LDG7),-0.145
18,RBPJ_Q06330_252_LVCSVTGMALPR (UniProt Q06330),0.108
19,RCC1L_Q96I51_237_MQDFDGQVVQVACGQDHSLFLTDK (UniProt Q96I51),0.0323
20,RCL1_Q9Y2P8_292_GGCVDSTNQSLALLLMTLGQQDVSK (UniProt Q9Y2P8),0.0546
